Reference: PubChem BioAssay AID268 (DTP/NCI, 2004)
The list shows only some results of the screen, not a fair sample: it gathers some chemical classes. Not every dose and run of a compound is shown. T/C gives the treated animals as a percentage of the vehicle group. Some entries show no survivor count and are marked so; the dose need not have been tolerated. Schedules are NCI's codes, read here as Q, the interval in days (D) or hours (H), X, the number of doses. Some doses were run more than once; their values stand side by side, smallest first.

Tested on: CD2F1 mice, P1798 lymphosarcoma sc, tumor weight T/C
Assay: NCI In Vivo Anticancer Drug Screen. Data for tumor model P1798 Lymphosarcoma (subcutaneous) in CD2F1 (CDF1) mice
Details: T/C endpoint: mean tumor weight, schedule: Q01DX010 (ip), vehicle: saline, evaluation day not shown, higher T/C = larger tumour
Procedure: The antitumor activity of compounds was measured in mice bearing transplantable tumors. Survival or tumor size were measured and the results are expressed as the measurement made in the treated group (T) divided by the measurement made in the vehicle treated control group (C). The tumor model used in this assay is P1798 Lymphosarcoma (subcutaneous) in CD2F1 (CDF1) mice

| SMILES | T/C (dose: 0.5 mg/kg/injection) | T/C (dose: 1.0 mg/kg/injection) | T/C (dose: 1.25 mg/kg/injection) | T/C (dose: 2.5 mg/kg/injection) | T/C (dose: 0.63 mg/kg/injection) | also measured |
| --- | --- | --- | --- | --- | --- | --- |
| ClCCNCCCl | – | – | – | – | – | T/C (dose: 9.4 mg/kg/injection): 78 % of control [survivor count not shown]; T/C (dose: 18.8 mg/kg/injection): 14 [survivor count not shown] and 61 % of control [survivor count not shown]; T/C (dose: 37.5 mg/kg/injection): 10 [survivor count not shown] and 36 % of control [survivor count not shown] |
| NC(Cc1ccccc1N(CCCl)CCCl)C(=O)O (stereo not given) | 54 % of control [survivor count not shown] | 50 % of control [survivor count not shown] | – | – | – | T/C (dose: 0.13 mg/kg/injection): 113 % of control [survivor count not shown]; T/C (dose: 0.25 mg/kg/injection): 112 % of control [survivor count not shown] |
| ClCCN(CCCl)Cc1nc2ccccc2[nH]1 | – | – | 43 [survivor count not shown] and 72 % of control [survivor count not shown] | 40 [survivor count not shown] and 51 % of control [survivor count not shown] | – | T/C (dose: 5.0 mg/kg/injection): 26 [survivor count not shown] and 31 % of control [survivor count not shown] |
| O=C(O)CN(CCCl)CCCl | – | – | 76 [survivor count not shown] and 131 % of control [survivor count not shown] | 37 [survivor count not shown] and 56 % of control [survivor count not shown] | 73 [survivor count not shown] and 92 % of control [survivor count not shown] | – |
| CC(C(=O)O)N(CCCl)CCCl (stereo not given) | 76 % of control [survivor count not shown] | 89 [survivor count not shown] and 101 % of control [survivor count not shown] | – | – | – | T/C (dose: 2.0 mg/kg/injection): 39 [survivor count not shown] and 59 % of control [survivor count not shown]; T/C (dose: 4.0 mg/kg/injection): 18 % of control [survivor count not shown] |
| NC(Cc1cccc(N(CCCl)CCCl)c1)C(=O)O (stereo not given) | – | – | 23 [survivor count not shown] and 50 % of control [survivor count not shown] | 13 [survivor count not shown] and 24 % of control [survivor count not shown] | 48 [survivor count not shown] and 74 % of control [survivor count not shown] | – |
